Measurements taken from patent EP4745117A1, “NOVEL INDENONE DERIVATIVE AND USE THEREOF” (Amyloid Solution Inc., priority 2023, dated 2025).
Some results were stated once for a whole list of compounds, not compound by compound.

Sequences of proteins named here, by UniProt entry; tags and fusion partners are left off. Residues count along the entry.
UniProt P05067, 672-713 limits assumed: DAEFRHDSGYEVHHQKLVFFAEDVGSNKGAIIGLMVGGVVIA
UniProt P10636, 623-653 limits assumed: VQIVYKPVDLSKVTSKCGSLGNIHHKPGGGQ

Assays:
Aβ1-42 = target: T1, Aβ1-42 (Homo sapiens, UniProt P05067); assay: Amyloid-beta disaggregation test by Thioflavin-T analysis; format: biochemical; conditions: statement in words summarising the Thioflavin-T results
T1 construct: dissolving Aβ1-42 or Tau-RD3 (Tau repeat domain 3) monomers in DMSO
Protocol: (§1) Each compound was dissolved in DMSO to a concentration of 10 mM. Then, the compounds were diluted with 6 % DMSO (in DW) for use.
(§2) Amyloid-beta and tau solutions were prepared by dissolving Aβ1-42 or Tau-RD3 (Tau repeat domain 3) monomers in DMSO to a concentration of 10 mM. Then, the solutions were diluted to 100 µM with DW and stored on ice.
(§3) Meanwhile, Thioflavin-T was dissolved in 50 mM glycine buffer (pH 8.5) to a concentration of 5 mM. Then, the solution was diluted to 5 µM with 50 mM glycine buffer (pH 8.5) and stored in the dark, protected from light.
(§4) The amyloid-beta and tau solutions prepared in Example 1.1 were each placed in 1.5 mL microcentrifuge tubes to a concentration of 50 µM or 35 µM, respectively, and then reacted at 37 °C for 24 hours.
(§5) To each 1.5 mL microcentrifuge tube in which the amyloid-beta and tau aggregation was complete, the compounds were added at concentrations ranging from 500 µM down to 0 µM by serial dilution, and then further reacted at 37 °C for 48 hours.
(§6) 25 µL of each completed reaction solution was added to each well of a 96-well fluorescence analysis plate, and 75 µL of the Thioflavin-T solution was added to each well. After reacting for 5 minutes at room temperature in the dark, the fluorescence value was measured at 450 nm (excitation) and 485 nm (emission) using a multi-mode microplate reader.
(§7) The fluorescence value of the group (control group) treated with only amyloid-beta or tau and aggregated for 72 hours was designated as 100 %. The fluorescence values measured after treating the amyloid-beta and tau aggregates (formed by reacting for 24 hours) with each compound by concentration and reacting for an additional 48 hours were converted to relative values.

[1] = target: Tau-RD3 (Tau repeat domain 3) (Homo sapiens, UniProt P10636); assay: Tau disaggregation test by Thioflavin-T analysis; format: biochemical; conditions: statement in words summarising the Thioflavin-T results
Protocol: as §1, §2, §3, §4, §5, §6, §7

Compound | disaggregation effect for amyloid-beta protein aggregates (Aβ1-42) | disaggregation effect for tau protein aggregates [1]
Cc1ncsc1C1=C(c2cnn(C3CCN(C)CC3)c2)C(=O)c2cc(OCCCc3ccccc3)ccc21 [Compound 30, 2-(1-(1-methylpiperidin-4-yl)-1H-pyrazol-4-yl)-3-(4-methylthiazol-5-yl)-6-(3-phenylpropoxy)-1H-inden-1-one] | remarkably excellent disaggregation effect | remarkably excellent disaggregation effect
Cc1ncsc1C1=C(c2c[nH]nn2)C(=O)c2cc(OCCCc3ccccc3)ccc21 [Compound 31, 3-(4-methylthiazol-5-yl)-6-(3-phenylpropoxy)-2-(1H-1,2,3-triazol-4-yl)-1H-inden-1-one] | remarkably excellent disaggregation effect | remarkably excellent disaggregation effect
Cc1ncsc1C1=C(c2cn(C)nn2)C(=O)c2cc(OCCCc3ccccc3)ccc21 [Compound 32, 2-(1-methyl-1H-1,2,3-triazol-4-yl)-3-(4-methylthiazol-5-yl)-6-(3-phenylpropoxy)-1H-inden-1-one] | remarkably excellent disaggregation effect | remarkably excellent disaggregation effect
Cc1ncsc1C1=C(c2cnn(C)n2)C(=O)c2cc(OCCCc3ccccc3)ccc21 [Compound 33, 2-(2-methyl-2H-1,2,3-triazol-4-yl)-3-(4-methylthiazol-5-yl)-6-(3-phenylpropoxy)-1H-inden-1-one] | remarkably excellent disaggregation effect | remarkably excellent disaggregation effect
Cc1ncsc1C1=C(c2ccc(N3CCN(C)CC3)cc2)C(=O)c2cc(N3CCN(CCO)CC3)ccc21 [Compound 74, 6-(4-(2-hydroxyethyl)piperazin-1-yl)-2-(4-(4-methylpiperazin-1-yl)phenyl)-3-(4-methylthiazol-5-yl)-1H-inden-1-one] | remarkably excellent disaggregation effect | remarkably excellent disaggregation effect
Cc1ncsc1C1=C(c2ccc(N3CCN(C)CC3)cc2)C(=O)c2cc(N3CCN(C)CC3)ccc21 [Compound 75, 6-(4-methylpiperazin-1-yl)-2-(4-(4-methylpiperazin-1-yl)phenyl)-3-(4-methylthiazol-5-yl)-1H-inden-1-one] | remarkably excellent disaggregation effect | remarkably excellent disaggregation effect
Cc1ncsc1C1=C(c2ccc(N3CCN(C)CC3)cc2)C(=O)c2cc(OCCCc3ccccc3)ccc21 [Compound 76, 2-(4-(4-methylpiperazin-1-yl)phenyl)-3-(4-methylthiazol-5-yl)-6-(3-phenylpropoxy)-1H-inden-1-one] | remarkably excellent disaggregation effect | remarkably excellent disaggregation effect
Cc1ncsc1C1=C(c2scnc2C)c2ccc(OCCCc3ccccc3)cc2C1=O [Compound 77, 2,3-bis(4-methylthiazol-5-yl)-6-(3-phenylpropoxy)-1H-inden-1-one] | remarkably excellent disaggregation effect | remarkably excellent disaggregation effect
